Test results reported in publication PMC6892437.
These are yes or no findings as the source states them, for the method shown. Binding seen in cells or lysates may run through a third protein. A result given as binding can be weak or reduced; the word gives no strength.

Protein sequences, listed by entry. Tags and fused reporters are not part of them. Lines headed by an entry give the natural chain unless they say otherwise; changes in a name come on top.
UniProt O14672: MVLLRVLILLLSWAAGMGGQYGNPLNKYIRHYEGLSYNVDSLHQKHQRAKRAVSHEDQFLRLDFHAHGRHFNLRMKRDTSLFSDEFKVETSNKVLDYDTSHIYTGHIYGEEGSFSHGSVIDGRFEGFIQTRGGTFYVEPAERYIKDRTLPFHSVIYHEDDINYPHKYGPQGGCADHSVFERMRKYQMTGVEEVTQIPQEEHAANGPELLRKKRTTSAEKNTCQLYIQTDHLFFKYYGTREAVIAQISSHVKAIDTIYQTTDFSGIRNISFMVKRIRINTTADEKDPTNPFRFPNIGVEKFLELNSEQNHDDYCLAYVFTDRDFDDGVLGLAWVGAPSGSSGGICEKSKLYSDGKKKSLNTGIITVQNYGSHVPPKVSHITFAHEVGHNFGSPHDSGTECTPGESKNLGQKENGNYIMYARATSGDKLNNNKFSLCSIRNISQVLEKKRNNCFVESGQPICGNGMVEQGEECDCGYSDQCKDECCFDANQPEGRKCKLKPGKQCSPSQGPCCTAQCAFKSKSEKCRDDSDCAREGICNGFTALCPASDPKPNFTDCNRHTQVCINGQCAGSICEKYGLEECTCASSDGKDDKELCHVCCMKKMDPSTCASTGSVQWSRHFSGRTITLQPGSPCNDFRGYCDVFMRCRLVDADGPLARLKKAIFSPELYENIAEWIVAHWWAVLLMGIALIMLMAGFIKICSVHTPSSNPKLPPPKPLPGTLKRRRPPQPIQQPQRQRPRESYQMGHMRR
UniProt O95858: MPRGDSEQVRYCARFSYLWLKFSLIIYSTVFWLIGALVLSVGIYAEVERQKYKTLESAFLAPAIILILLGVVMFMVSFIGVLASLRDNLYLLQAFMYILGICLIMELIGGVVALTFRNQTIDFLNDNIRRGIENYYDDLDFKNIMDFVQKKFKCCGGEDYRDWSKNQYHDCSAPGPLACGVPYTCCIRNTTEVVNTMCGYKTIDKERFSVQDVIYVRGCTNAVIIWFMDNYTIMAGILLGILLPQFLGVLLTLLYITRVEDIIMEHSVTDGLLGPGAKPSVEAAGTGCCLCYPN

Assays:
[1] = target: T1, endogenous Tspan5 (human (endogenous in U2OS and PC3)) (UniProt P62079); assay: co-IP; PC3 cells (parental, Tspan5 KO, Tspan15 KO) lysed in 1% Brij 97 or digitonin; immunoprecipitation with anti-ADAM10 or anti-Tspan5 mAbs (TS5-2, TS5-1r), Western blot
T1 sequence: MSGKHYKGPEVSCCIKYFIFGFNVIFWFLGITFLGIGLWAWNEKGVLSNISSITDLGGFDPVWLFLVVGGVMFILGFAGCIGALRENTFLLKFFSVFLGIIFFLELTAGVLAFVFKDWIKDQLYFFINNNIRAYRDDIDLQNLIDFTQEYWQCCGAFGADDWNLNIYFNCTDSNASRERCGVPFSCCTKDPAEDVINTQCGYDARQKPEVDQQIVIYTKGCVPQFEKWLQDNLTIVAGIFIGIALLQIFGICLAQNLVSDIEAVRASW

[2] = target: T2, CD81 (human (endogenous in U2OS)) (UniProt P60033); assay: co-IP; U2OS cells transfected or not with Tspan5 or Tspan15, lysed in 1% Brij 97 with 1 mM CaCl2 and MgCl2 (30 mM Tris pH 7.4, 150 mM NaCl); immunoprecipitation of ADAM10 or CD81, Western blot
T2 sequence: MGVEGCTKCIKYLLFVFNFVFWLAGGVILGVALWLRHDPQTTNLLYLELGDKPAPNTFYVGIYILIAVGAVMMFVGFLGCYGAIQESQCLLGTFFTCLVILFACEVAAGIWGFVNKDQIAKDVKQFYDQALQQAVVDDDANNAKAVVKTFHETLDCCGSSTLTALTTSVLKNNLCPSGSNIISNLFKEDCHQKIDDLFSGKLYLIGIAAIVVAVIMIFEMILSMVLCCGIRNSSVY

[3] = target: ADAM10 (human (endogenous in U2OS and PC3)) (UniProt O14672); assay: co-IP; Tspan15-transfected U2OS cells, lysed in 1% Brij 97 with 1 mM CaCl2 and MgCl2; immunoprecipitation of ADAM10, Western blot
[4] = target: ADAM10 (human (endogenous in U2OS and PC3)), O14672; assay: co-IP; U2OS cells transfected or not with Tspan5 or Tspan15, lysed in 1% Brij 97 with 1 mM CaCl2 and MgCl2 (30 mM Tris pH 7.4, 150 mM NaCl); immunoprecipitation of ADAM10 or CD81, Western blot; settings: remark: other sources report otherwise
[5] = target: ADAM10 (human (endogenous in U2OS and PC3)) (UniProt O14672); assay: co-IP; PC3 cells (parental, Tspan5 KO, Tspan15 KO) lysed in 1% Brij 97 or digitonin; immunoprecipitation with anti-ADAM10 or anti-Tspan5 mAbs (TS5-2, TS5-1r), Western blot
[6] = target: ADAM10 (human (endogenous in U2OS and PC3)) (UniProt O14672); assay: co-IP; U2OS cells transfected or not with Tspan5 or Tspan15, lysed in 1% Brij 97 with 1 mM CaCl2 and MgCl2 (30 mM Tris pH 7.4, 150 mM NaCl); immunoprecipitation of ADAM10 or CD81, Western blot

## ADAM10 (from UniProt O14672)
[1]
  binding: binds
[2]
  binding: binds

## untagged Tspan15 (ectopically expressed) (from UniProt O95858 1-294)
[3]
  binding: binds

B1: CD9, P21926 1-228 (protein)
chain: MPVKGGTKCIKYLLFGFNFIFWLAGIAVLAIGLWLRFDSQTKSIFEQETNNNNSSFYTGVYILIGAGALMMLVGFLGCCGAVQESQCMLGLFFGFLLVIFAIEIAAAIWGYSHKDEVIKEVQEFYKDTYNKLKTKDEPQRETLKAIHYALNCCGLAGGVEQFISDICPKKDVLETFTVKSCPDAIKEVFDNKFHIIGAVGIGIAVVMIFGMIFSMILCCAIRRNREMV
[4]
  binding: binds

B2: endogenous Tspan5 (protein, UniProt P62079 1-268)
chain: T1 sequence
[5]
  binding: binds
[6]
  binding: binds
[3]
  binding: no binding (only in Tspan15-transfected cells)
